Results reported in article PMC9845754.
No constants are given. Whether binding was seen depends on the method and setting. For some assays here: A result given as binding can be weak or reduced; the word gives no strength. For some assays here: Tags and fused reporters may be left off the sequences shown. For some assays here: Binding seen in cells or lysates may run through a third protein. Values belong to the molecule of their own block, whether it stands above or below them.

The chains behind the UniProt entries cited, without tags or fusion partners.
UniProt O82481: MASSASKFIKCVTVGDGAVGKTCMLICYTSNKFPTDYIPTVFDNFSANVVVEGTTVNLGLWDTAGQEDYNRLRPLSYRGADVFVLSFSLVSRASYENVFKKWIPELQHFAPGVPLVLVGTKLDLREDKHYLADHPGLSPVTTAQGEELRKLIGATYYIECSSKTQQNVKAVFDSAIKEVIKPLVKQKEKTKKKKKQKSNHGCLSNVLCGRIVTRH
UniProt Q38937: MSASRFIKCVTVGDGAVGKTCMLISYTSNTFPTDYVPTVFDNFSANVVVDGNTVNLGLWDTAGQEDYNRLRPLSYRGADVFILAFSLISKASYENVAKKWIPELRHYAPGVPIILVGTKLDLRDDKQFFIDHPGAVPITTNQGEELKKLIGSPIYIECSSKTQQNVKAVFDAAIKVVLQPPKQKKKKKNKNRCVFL
UniProt Q38919: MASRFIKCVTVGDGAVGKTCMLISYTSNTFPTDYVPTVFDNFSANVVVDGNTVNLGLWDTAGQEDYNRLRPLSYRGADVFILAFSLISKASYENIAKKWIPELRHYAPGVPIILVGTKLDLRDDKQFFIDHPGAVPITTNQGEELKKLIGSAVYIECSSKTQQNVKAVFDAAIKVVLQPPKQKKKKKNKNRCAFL
UniProt O82480: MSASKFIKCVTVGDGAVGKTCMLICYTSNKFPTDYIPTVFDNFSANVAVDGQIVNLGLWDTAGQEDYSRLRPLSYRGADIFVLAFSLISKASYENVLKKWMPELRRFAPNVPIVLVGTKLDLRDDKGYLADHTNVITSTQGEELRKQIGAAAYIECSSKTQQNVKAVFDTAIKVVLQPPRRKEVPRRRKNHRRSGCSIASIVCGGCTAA

Assays:
[1] = target: YN-rop11^CA (constitutively active ROP11) (UniProt O82481); assay: split reporter; BiFC with halves of YFP (YN, YC), transient expression in N. benthamiana leaf epidermis cells; confocal imaging, for some panels lambda scan 521-690 nm and linear unmixing of the YFP signal
YN-ROP4 = YN-ROP4 (UniProt Q38937); assay: as above
[2] = target: T1, ICR5-YC (interactor of constitutively active ROP 5 fused to the C-terminal half of YFP) (Arabidopsis) (UniProt Q8VYU8); assay: as above
T1 sequence: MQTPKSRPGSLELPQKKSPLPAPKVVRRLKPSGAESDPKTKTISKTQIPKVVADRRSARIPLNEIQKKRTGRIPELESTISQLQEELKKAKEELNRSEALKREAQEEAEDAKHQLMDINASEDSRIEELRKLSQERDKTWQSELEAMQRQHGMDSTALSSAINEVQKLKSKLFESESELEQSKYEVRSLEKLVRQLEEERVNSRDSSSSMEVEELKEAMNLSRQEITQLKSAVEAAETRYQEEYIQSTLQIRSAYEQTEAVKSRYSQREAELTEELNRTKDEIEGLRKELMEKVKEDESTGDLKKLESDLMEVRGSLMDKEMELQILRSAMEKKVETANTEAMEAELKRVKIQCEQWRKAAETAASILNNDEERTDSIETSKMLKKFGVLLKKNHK

[3] = target: T2, ICR3-YC (interactor of constitutively active ROP 3 fused to the C-terminal half of YFP) (Arabidopsis) (UniProt Q9LSS5); assay: as above
T2 sequence: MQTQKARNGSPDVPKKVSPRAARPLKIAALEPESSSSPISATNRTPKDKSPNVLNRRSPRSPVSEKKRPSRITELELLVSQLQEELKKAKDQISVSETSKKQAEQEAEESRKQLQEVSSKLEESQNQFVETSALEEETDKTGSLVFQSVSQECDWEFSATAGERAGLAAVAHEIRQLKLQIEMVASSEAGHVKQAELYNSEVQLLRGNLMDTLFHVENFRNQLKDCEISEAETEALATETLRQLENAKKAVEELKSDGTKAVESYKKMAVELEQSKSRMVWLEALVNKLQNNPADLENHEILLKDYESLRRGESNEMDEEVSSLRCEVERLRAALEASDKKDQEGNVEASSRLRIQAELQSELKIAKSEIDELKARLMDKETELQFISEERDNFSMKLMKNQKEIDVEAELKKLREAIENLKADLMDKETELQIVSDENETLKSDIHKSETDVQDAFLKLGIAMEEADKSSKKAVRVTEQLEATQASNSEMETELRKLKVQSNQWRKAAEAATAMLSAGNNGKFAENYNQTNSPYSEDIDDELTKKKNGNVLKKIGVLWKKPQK

YN-ROP11 = YN-ROP11 (UniProt O82481); assay: as above
YN-ROP2 = YN-ROP2 (UniProt Q38919); assay: as above
YN-ROP9 = YN-ROP9 (UniProt O82480); assay: as above
[4] = target: T3, ICR5 (interactor of constitutively active ROP 5) fused to a half of YFP for BiFC (Arabidopsis) (UniProt Q8VYU8); assay: split reporter; BiFC; YN and YC fusions transiently co-expressed in N. benthamiana leaf epidermis, confocal imaging; for the ICR-ICR pairs lambda stacks excited at 514 nm, emission 521-690 nm, unmixed for the YFP signal
T3 sequence: T1 sequence

[5] = target: T4, ICR3 (interactor of constitutively active ROP 3) fused to a half of YFP for BiFC (Arabidopsis) (UniProt Q9LSS5); assay: as above
T4 sequence: T2 sequence

[6] = target: ROP10, yeast two-hybrid fusion (pGBT ROP10); assay: two-hybrid; yeast two-hybrid in S. cerevisiae PJ69-4a; pGBT9.BS and pGAD.GH fusions; growth of four decimal dilutions on -Leu -Trp -His medium with 1 mM 3AT, 28°C
[7] = target: ROP6, yeast two-hybrid fusion (pGBT ROP6); assay: as above
[8] = target: ICR2 (interactor of constitutively active ROP 2) fused to a half of YFP for BiFC (Arabidopsis) (UniProt Q9ZQC5); assay: split reporter; BiFC; YN and YC fusions transiently co-expressed in N. benthamiana leaf epidermis, confocal imaging; for the ICR-ICR pairs lambda stacks excited at 514 nm, emission 521-690 nm, unmixed for the YFP signal
[9] = target: taxol-stabilized microtubules polymerized from porcine brain tubulin (porcine); assay: co-sedimentation; 0-10 uM ICR2-His6 with taxol-stabilized microtubules (5 uM tubulin) in PEMT pH 6.9; 100,000 g, 25°C, 15 min; supernatant and pellet on Coomassie-stained SDS-PAGE; both purified

Molecule: ICR2 (interactor of constitutively active ROP 2) fused to a half of YFP for BiFC (from UniProt Q9ZQC5)
binding [4]: no binding
binding [5]: no binding

B2: ICR3 (interactor of constitutively active ROP 3) fused to a half of YFP for BiFC (protein, UniProt Q9LSS5 1-564)
chain: T2 sequence
binding [8]: no binding

B3: ICR5 (interactor of constitutively active ROP 5) fused to a half of YFP for BiFC (protein, UniProt Q8VYU8 1-396)
chain: T1 sequence
binding [8]: no binding

B4: ICR2-His6 (protein, UniProt Q9ZQC5 56-583)
chain: ADRRSPRTPVNEIQKKRTGKTPELASQISQLQEELKKAKEQLSASEALKKEAQDQAEETKQQLMEINASEDSRIDELRKLSQERDKAWQSELEAMQRQHAMDSAALSSTMNEVQKLKAQLSESENVENLRMELNETLSLVEKLRGELFDAKEGEAQAHEIVSGTEKQLEIANLTLEMLRSDGMKMSEACNSLTTELEQSKSEVRSLEQLVRQLEEEDEARGNANGDSSSVEELKEEINVARQEISQLKSAVEVTERRYHEEYIQSTLQIRTAYEQVDEVKSGYAQREAELGEELKKTKAERDSLHERLMDKEAKLRILVDENEILNSKIKEKEEVYLNLENSLNQNEPEDTGELKKLESDVMELRANLMDKEMELQSVMSQYESLRSEMETMQSEKNKAIDEALAKLGSLTEEADKSGKRAENATEQLGAAQVTNTELEAELRRLKVQCDQWRKAAEAAATMLSGGNNNNNSNGKYVERTGSLESPLRRRNVNMSPYMGETDDELSSPKKKNGSMLKKIGVLLKKSQK
binding [9]: binds

Results, then the molecule that gave them:

binding [1]: binds
binding (YN-ROP4): binds
binding [2]: no binding
binding [3]: no binding
binding (YN-ROP11): binds
binding (YN-ROP2): binds
binding (YN-ROP9): binds
Molecule: ICR2-YC (interactor of constitutively active ROP 2 fused to the C-terminal half of YFP) (from UniProt Q9ZQC5)

binding [6]: binds
binding [7]: binds
B1: ICR2, yeast two-hybrid fusion (pGAD-ICR2) (protein, UniProt Q9ZQC5 1-583)
chain: MQTPKPRPGSLEVPQKKSPASTPKTARKLKTSESDPVSSPNTKIRTPKTQSPKVVADRRSPRTPVNEIQKKRTGKTPELASQISQLQEELKKAKEQLSASEALKKEAQDQAEETKQQLMEINASEDSRIDELRKLSQERDKAWQSELEAMQRQHAMDSAALSSTMNEVQKLKAQLSESENVENLRMELNETLSLVEKLRGELFDAKEGEAQAHEIVSGTEKQLEIANLTLEMLRSDGMKMSEACNSLTTELEQSKSEVRSLEQLVRQLEEEDEARGNANGDSSSVEELKEEINVARQEISQLKSAVEVTERRYHEEYIQSTLQIRTAYEQVDEVKSGYAQREAELGEELKKTKAERDSLHERLMDKEAKLRILVDENEILNSKIKEKEEVYLNLENSLNQNEPEDTGELKKLESDVMELRANLMDKEMELQSVMSQYESLRSEMETMQSEKNKAIDEALAKLGSLTEEADKSGKRAENATEQLGAAQVTNTELEAELRRLKVQCDQWRKAAEAAATMLSGGNNNNNSNGKYVERTGSLESPLRRRNVNMSPYMGETDDELSSPKKKNGSMLKKIGVLLKKSQK
